Source: US20230248744A1, “25-HYDROXYVITAMIN D2 AND/OR D3 FOR USE IN OBESITY” (CARBOGEN AMCIS B.V., priority 2020, published 2023)
At least one read-out could not be matched to a standard name with certainty.

Assay: Double-blind randomized crossover pharmacokinetic study, single oral 900 μg vitamin D3 or 25(OH)D3
Type: in vivo, human
Conditions: FIG. 4
Method: The conclusions as presented herein are based on the following experiments: In a double-blinded cross-over study single high dosages (900 μg total in two soft gel capsules containing 450 μg) of either vitamin D3 or 25(OH)D3 were administered to vitamin D-deficient volunteers including healthy controls as well as subjects with a history of malabsorption. At the outset, the BMI was determined. Blood samples were then taken at baseline and at 2, 4, 6, 8, and 12 hours as well as 1, 2, 3, 7, and 14 days after administration (FIG. 2). All the samples were analyzed for their contents in vitamin D3 per se as well as 25(OH)D3. […] In addition, peak levels were more rapidly reached with 25(OH)D3 than with vitamin D3 (see FIG. 5). […]
The pharmacokinetic parameters of orally administered 25(OH)D3 and vitamin D3 (both provided for formulation in form of visually identical soft-gel pills) were studied based on the corresponding serum concentration-time curves in healthy adults and adults with a history of intestinal malabsorption (see FIG. 2). Cinical safety has been evaluated by monitoring serum calcium, phosphorus, parathyroid hormone (PTH) and 25(OH)D levels at the beginning and end of the study. […]
Serum levels of calcium, phosphorus, albumin, creatinine and intact parathyroid hormone (iPTH) were determined at baseline and at the end of each 14-day pharmacokinetic study (see Table 4). […]

## C=C1CC[C@H](O)C/C1=C/C=C1\CCC[C@]2(C)[C@@H]([C@H](C)CCCC(C)(C)O)CC[C@@H]12 [25-hydroxyvitamin D3]
  bioavailability (peak level and area under the curve) in subjects with elevated BMI compared to normal subjects (BMI <30): essentially the same
